Measured values published in US9023767B2, “γ-Secretase substrates and methods of use” (Memorial Sloan-Kettering Cancer Center, priority 2009, dated 2015).
At least one peptide structure holds a part that was inferred or is arguable (an end, a ring closure or a residue). Where a SMILES comes first, the peptide text is derived from it. [ ]: non-standard residue; d: D form. Bpa = N[C@@H](Cc1ccc(C(=O)c2ccccc2)cc1)C(=O)O

Legend:
[1] = target: γ-secretase (Mus musculus (Mouse), UniProt P49769); assay: Cellular γ-secretase activity, secreted Aβ40 from N2A APP stable cells; format: cell-based; conditions: up to 100 μM
Procedure: FIG. 5. […] The conditioned media were collected and secreted Aβ40 was measured with 6E10/G2-10 antibodies (mean±SEM; n=3). The activities of the peptide treatments were normalized to the DMSO treatment. […] The same experiments were performed as FIG. 5c. The cell lysates were analyzed by CT-15 antibody. Upper panel: full length APP. Lower panel: CTFs. […] The ΔE-Notch1 (a Notch construct with deletion of the extracellular portion and tagged by Myc) was transfected into HEK293 cells.
After transfection or compound treatment, conditioned cell media were collected and diluted in RIPA buffer. Secreted Aβ peptides were detected by ECL assay using biotinylated 6E10 and ruthenylated G2-10 antibodies.

[2] = target: γ-secretase (Homo sapiens (Human), UniProt P49768+Q92542); assay: Photoaffinity labeling of γ-secretase in HeLa membrane by Aβ17-23BPA20-biotin; format: binding; conditions: 10 μM
Procedure: FIG. 4. […] Various concentrations of inhibitor were incubated with APP substrate (S4) or Notch peptide substrate containing the C-terminal biotinylated transmembrane domain of Notch1 and HeLa cell membrane in the presence of 0.25% CHAPSO. Aβ40 was detected by G2-10 antibody. The cleaved Notch product was detected by Val1744 antibody that specifically recognizes the cleaved product between Gly1743 and Val1744. Activities are expressed as percentage relative to reading that was produced in DMSO control. […] Various concentrations of S4 substrate were incubated with HeLa membrane in fixed concentrations of inhibitor as indicated. The double reciprocal velocity (1/v) and substrate concentrations (1/S) are plotted to determine the type of inhibition. […] Assays were conducted as described in FIG. 4A. […] The labeled samples were solubilized with RIPA buffer. […]
The labeled proteins were eluted with 2×SDS sample buffer and analyzed with Western blotting using antibodies against the components of γ-secretase complex. Protein concentration was determined with the Dc protein assay kit (Bio-Rad)
After the photolyzed membranes were solubilized, biotinylated proteins were captured, eluted and analyzed by western blotting with antibodies against biotin, PS1, nicastrin, PEN-2 and APH-1.

Row | SMILES | inhibition of cellular γ-secretase activity [1] | block of photochemical labelings by excess non-biotinylated peptide [2]
1 | CC(C)C[C@H](N)C(=O)N[C@H](C(=O)N[C@@H](Cc1ccccc1)C(=O)N[C@@H](Cc1ccccc1)C(=O)N[C@@H](C)C(=O)N[C@@H](CCC(=O)O)C(=O)N[C@@H](CC(=O)O)C(=O)O)C(C)C [Aβ17-23, LVFFAED] | failed to inhibit | –
2 | CC(C)C[C@H](N)C(=O)N[C@H](C(=O)N[C@@H](Cc1ccc(C(=O)c2ccccc2)cc1)C(=O)N[C@@H](Cc1ccccc1)C(=O)N[C@@H](C)C(=O)N[C@@H](CCC(=O)O)C(=O)N[C@@H](CC(=O)O)C(=O)O)C(C)C [Aβ17-23BPA^19] (H-LV[Bpa]FAED-OH) | – | blocked
3 | COC(=O)CC[C@H](NC(=O)[C@H](C)NC(=O)[C@H](Cc1ccccc1)NC(=O)[C@H](Cc1ccccc1)NC(=O)[C@@H](NC(=O)[C@@H](N)CC(C)C)C(C)C)C(=O)N[C@@H](CC(=O)OC)C(N)=O [PM-1] | unable to suppress | –
